From article PMC4894982
No constants are given. Whether binding was seen depends on the method and setting. Some entries that bind do so weakly or less than the wild type. Values belong to the molecule of their own block, whether it stands above or below them.

Sequences of proteins named here, by UniProt entry; tags and fusion partners are left off. Residues count along the entry.
UniProt O75581, residues 20-1370: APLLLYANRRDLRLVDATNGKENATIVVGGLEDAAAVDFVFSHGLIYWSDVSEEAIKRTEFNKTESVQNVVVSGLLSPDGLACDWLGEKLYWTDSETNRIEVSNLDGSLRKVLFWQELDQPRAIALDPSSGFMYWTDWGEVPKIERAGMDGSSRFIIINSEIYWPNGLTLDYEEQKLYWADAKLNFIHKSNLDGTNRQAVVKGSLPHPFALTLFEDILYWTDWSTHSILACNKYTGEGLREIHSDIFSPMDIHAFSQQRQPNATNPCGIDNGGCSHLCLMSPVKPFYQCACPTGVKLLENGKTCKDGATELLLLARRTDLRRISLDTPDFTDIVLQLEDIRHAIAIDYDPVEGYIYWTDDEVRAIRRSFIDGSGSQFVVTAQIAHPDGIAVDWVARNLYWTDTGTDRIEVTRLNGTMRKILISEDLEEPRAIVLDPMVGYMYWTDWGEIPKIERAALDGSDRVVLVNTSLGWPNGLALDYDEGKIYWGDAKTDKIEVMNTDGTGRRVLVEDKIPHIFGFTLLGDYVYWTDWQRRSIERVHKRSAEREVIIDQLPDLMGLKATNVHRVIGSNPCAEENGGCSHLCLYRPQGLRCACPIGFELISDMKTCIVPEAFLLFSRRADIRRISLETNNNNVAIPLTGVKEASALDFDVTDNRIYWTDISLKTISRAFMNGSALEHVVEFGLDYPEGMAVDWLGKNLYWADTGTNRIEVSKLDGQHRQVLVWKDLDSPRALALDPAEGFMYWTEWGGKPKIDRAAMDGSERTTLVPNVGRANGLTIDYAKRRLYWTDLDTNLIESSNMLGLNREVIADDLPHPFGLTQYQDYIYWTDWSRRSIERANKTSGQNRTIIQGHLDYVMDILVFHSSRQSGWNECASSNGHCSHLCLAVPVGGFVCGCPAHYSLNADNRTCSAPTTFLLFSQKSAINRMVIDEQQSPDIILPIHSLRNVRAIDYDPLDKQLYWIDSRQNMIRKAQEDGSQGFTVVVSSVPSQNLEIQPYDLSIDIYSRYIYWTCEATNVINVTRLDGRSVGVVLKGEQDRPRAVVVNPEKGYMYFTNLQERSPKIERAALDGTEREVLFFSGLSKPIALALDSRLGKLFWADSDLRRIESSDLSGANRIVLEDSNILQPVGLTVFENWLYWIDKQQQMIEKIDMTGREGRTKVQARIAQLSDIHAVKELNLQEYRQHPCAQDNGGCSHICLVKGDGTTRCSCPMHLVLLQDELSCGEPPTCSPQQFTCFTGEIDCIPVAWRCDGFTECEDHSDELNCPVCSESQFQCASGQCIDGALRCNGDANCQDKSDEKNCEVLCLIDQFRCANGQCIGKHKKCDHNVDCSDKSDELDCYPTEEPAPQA
UniProt Q9BQB4, residues 24-213: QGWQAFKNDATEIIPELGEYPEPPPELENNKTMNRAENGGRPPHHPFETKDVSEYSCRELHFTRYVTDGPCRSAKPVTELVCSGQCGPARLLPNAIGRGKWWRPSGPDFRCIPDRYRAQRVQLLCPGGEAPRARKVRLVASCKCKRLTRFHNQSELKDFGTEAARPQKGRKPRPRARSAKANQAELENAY

Biological target: recombinant huLRP-6/Fc (human) (UniProt O75581)
Assay: AlphaScreen or HTRF; competition format: biotin-labelled sclerostin (2 nM) or DKK1 (0.5 nM) on streptavidin donor beads, huLRP-6/Fc (3 nM for sclerostin, 0.3 nM for DKK1) on protein A acceptor beads, serial dilutions of Hetero-DS; 40 mM sodium HEPES pH 7.5, 100 mM NaCl, 1 mM CaCl2, 0.1% BSA, 0.05% Tween20; overnight at 20 °C; both purified

- binding: binds
Molecule: biotin-labelled human recombinant sclerostin (from UniProt Q9BQB4 24-213) (ligand)

- binding: binds
B1: biotin-labelled human recombinant DKK1 (ligand, UniProt O94907 32-266)
chain: TLNSVLNSNAIKNLPPPLGGAAGHPGSAVSAAPGILYPGGNKYQTIDNYQPYPCAEDEECGTDEYCASPTRGGDAGVQICLACRKRRKRCMRHAMCCPGNYCKNGICVSSDQNHFRGEIEETITESFGNDHSTLDGYSRRTTLSSKMYHTKGQEGSVCLRSSDCASGLCCARHFWSKICKPVLKEGQVCTKHRRKGSHGLEIFQRCYCGEGLSCRIQKDHHQASNSSRLHTCQRH
modifications: biotin-labelled (site not stated)
